Assay results: PMC11067302
These are yes or no findings as the source states them, for the method shown. In cells and extracts the contact can be indirect. These calls come from enrichment with a bait or labelling near it, and not all partners need be listed. Where a sequence is shown, tags or fusion partners need not be part of it.

Target: T1, HA-RNF128 (pCDH-HA-RNF128 lentivirus, TF-1 cells) (UniProt Q8TEB7)
T1 sequence: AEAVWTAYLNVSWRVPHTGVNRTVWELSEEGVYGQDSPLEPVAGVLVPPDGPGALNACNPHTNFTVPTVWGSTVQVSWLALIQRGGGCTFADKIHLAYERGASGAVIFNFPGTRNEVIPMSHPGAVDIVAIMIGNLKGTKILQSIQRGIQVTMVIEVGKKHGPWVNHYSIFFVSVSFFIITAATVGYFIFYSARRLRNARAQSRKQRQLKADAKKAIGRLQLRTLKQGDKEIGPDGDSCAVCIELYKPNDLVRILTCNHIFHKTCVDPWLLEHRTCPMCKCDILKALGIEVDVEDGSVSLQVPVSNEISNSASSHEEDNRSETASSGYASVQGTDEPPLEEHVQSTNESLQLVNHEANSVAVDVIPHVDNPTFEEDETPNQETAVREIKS
Assay: affinity purification with mass spectrometry; TF-1 cells infected with pCDH-HA-RNF128 or pCDH lentivirus; RIPA lysate on anti-HA agarose beads overnight at 4 °C; washed with 1 M NaCl RIPA buffer and PBS; eluate analysed by LC-MS/MS

binding: binds
B1: IL-3 receptor subunit alpha (endogenous, TF-1 cells) (receptor, UniProt P26951 19-378)
chain: TKEDPNPPITNLRMKAKAQQLTWDLNRNVTDIECVKDADYSMPAVNNSYCQFGAISLCEVTNYTVRVANPPFSTWILFPENSGKPWAGAENLTCWIHDVDFLSCSWAVGPGAPADVQYDLYLNVANRRQQYECLHYKTDAQGTRIGCRFDDISRLSSGSQSSHILVRGRSAAFGIPCTDKFVVFSQIEILTPPNMTAKCNKTHSFMHWKMRSHFNRKFRYELQIQKRMQPVITEQVRDRTSFQLLNPGTYTVQIRARERVYEFLSAWSTPQRFECDQEEGANTRAWRTSLLIALGTLLALVCVFVICRRYLVMQRLFPRIPHMKDPIGDSFQNDKLVVWEAGKAGLEECLVTEVQVVQKT
